According to patent US20050036992A1, “Novel use of liver X receptor agonists” (IRM LLC, priority 2002, published 2005):

System: LXR/RXR heterodimer
Test: EMSA
Details: in vitro translated proteins, radiolabeled mGLUT4 oligonucleotide; exact oligo bounds not stated, SEQ 1 is the aligned LXRE; protein translated in vitro; label: radiolabel

“CTCCGGGTTACTTCGGGGCATACA (double strand) [mouse GLUT4 promoter LXRE (DR-4)]”: binds.

Construct, isoform or probe ends are uncertain for at least one entry.
